The other results are listed elsewhere or left out.
Key:
Assay in all cases: log2 fold change, soluble protein after heating vs DMSO (PISA); higher = thermal stabilisation; K562 lysate, 10 uM; active = over 0.2 and 3.5 SD of the protein, either way, in both replicates (recomputed)
vemurafenib = compound: CCCS(=O)(=O)Nc1ccc(F)c(C(=O)c2c[nH]c3ncc(-c4ccc(Cl)cc4)cc23)c1F [vemurafenib]
Outline: (§1)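 Pellets of K562 cells were dounce-homogenised in PBS pH 7.4 with 1 mM MgCl2, and the crude extract was held at 1 mg/mL protein for a 30 min treatment with 10 μM compound. Aliquots were heated for 3 min over 48°C-58°C and pooled before NP-40 was added to 0.5% at 4°C. The supernatant from 21,000xg for 90 min was quantified by TMTpro 16plex LC-MS/MS with channel sums equalised. Values are reported from duplicates as log-two fold change in thermal stability relative to solvent controls.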

The chains behind the UniProt entries cited, without tags or fusion partners. Where a name states a change or a piece, a line headed by the entry shows the natural chain unless it says otherwise.
UniProt Q5SZL2: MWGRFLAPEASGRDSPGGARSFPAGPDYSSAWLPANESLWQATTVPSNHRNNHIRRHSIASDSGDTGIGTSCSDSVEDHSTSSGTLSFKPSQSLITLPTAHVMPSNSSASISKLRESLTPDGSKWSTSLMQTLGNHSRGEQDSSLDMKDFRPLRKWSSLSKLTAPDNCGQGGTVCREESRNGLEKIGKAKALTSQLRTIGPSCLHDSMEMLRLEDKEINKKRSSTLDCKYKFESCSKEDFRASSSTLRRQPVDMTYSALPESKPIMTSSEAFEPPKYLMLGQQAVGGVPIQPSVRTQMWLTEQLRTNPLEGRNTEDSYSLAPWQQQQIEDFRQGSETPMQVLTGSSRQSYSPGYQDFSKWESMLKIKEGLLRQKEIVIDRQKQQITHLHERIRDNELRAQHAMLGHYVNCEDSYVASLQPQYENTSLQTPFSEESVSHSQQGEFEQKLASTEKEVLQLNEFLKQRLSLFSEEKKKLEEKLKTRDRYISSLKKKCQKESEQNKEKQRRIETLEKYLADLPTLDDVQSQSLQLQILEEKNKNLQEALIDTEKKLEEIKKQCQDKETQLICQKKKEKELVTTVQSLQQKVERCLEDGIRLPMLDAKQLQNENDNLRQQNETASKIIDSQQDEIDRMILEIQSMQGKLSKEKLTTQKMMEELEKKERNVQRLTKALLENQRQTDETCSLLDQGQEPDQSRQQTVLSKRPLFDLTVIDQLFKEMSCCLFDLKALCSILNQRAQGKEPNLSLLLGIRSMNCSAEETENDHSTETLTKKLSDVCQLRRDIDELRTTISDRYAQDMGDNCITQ
UniProt Q53HL2: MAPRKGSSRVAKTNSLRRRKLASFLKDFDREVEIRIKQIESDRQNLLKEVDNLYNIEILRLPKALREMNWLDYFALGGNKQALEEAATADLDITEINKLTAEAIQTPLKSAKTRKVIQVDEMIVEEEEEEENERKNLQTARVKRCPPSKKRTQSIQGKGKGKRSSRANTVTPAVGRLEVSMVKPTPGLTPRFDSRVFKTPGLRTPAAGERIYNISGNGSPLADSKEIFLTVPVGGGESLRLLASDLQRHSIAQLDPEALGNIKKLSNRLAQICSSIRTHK
UniProt Q8TCZ2: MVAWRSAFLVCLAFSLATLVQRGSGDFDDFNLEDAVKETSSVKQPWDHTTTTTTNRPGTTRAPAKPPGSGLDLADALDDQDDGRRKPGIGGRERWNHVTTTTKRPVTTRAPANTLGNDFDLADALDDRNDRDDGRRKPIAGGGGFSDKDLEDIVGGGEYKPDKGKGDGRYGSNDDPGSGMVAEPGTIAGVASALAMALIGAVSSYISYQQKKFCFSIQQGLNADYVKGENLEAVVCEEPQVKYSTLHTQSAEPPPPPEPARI
UniProt A8MTT3: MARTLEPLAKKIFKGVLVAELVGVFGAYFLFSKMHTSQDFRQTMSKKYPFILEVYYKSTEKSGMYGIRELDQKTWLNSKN
UniProt O14613: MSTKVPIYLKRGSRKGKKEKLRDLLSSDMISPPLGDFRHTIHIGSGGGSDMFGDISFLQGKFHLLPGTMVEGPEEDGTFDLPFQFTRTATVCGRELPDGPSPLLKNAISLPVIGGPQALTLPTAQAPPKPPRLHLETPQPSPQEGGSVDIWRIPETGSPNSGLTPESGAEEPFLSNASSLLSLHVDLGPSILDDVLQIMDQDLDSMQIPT
UniProt Q8N5B7: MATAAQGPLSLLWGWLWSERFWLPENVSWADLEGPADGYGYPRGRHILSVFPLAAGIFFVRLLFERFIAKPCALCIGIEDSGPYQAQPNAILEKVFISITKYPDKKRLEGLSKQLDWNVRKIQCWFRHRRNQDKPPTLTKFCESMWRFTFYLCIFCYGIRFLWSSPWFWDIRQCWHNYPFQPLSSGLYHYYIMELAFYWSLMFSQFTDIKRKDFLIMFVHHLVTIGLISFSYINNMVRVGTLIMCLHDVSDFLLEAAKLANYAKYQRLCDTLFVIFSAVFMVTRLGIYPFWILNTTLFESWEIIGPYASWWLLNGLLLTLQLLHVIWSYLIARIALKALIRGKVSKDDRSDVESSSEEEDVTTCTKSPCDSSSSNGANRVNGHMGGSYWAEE
UniProt Q6DT37: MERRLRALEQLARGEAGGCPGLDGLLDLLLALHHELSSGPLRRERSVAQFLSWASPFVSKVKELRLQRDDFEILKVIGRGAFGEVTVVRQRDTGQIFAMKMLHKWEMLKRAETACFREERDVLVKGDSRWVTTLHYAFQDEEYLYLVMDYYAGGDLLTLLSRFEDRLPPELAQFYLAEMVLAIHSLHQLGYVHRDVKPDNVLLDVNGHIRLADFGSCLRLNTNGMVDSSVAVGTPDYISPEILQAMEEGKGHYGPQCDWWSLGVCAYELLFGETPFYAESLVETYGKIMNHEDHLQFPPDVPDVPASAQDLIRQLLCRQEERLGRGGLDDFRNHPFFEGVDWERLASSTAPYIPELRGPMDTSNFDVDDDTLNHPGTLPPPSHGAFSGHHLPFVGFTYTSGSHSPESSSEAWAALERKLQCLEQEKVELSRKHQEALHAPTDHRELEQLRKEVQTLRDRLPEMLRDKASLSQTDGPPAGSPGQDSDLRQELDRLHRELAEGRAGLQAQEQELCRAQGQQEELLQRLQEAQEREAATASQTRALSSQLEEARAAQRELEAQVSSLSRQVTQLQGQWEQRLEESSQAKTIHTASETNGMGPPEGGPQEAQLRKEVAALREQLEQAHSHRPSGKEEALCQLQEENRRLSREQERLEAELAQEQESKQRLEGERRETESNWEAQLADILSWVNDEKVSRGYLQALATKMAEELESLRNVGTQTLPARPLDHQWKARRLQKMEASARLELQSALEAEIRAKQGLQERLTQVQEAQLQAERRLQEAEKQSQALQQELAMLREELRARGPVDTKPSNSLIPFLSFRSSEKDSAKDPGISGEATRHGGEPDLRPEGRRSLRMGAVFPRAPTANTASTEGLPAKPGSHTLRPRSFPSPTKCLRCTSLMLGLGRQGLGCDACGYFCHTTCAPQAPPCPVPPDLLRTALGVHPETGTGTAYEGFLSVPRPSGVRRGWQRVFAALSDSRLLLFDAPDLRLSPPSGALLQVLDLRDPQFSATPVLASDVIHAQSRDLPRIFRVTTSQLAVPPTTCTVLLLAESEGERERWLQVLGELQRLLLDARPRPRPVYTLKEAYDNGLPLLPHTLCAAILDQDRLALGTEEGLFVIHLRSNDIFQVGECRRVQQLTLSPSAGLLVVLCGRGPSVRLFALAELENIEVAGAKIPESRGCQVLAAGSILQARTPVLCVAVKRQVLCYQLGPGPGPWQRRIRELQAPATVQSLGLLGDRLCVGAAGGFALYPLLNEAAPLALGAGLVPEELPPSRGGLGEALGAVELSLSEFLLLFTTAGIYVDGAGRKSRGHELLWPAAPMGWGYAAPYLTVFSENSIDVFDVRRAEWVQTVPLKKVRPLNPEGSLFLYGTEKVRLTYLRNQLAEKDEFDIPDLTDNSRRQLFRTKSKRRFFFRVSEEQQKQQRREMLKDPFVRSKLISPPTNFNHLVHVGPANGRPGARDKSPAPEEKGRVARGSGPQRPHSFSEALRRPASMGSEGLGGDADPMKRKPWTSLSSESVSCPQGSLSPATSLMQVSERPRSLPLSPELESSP
UniProt Q9HCU4: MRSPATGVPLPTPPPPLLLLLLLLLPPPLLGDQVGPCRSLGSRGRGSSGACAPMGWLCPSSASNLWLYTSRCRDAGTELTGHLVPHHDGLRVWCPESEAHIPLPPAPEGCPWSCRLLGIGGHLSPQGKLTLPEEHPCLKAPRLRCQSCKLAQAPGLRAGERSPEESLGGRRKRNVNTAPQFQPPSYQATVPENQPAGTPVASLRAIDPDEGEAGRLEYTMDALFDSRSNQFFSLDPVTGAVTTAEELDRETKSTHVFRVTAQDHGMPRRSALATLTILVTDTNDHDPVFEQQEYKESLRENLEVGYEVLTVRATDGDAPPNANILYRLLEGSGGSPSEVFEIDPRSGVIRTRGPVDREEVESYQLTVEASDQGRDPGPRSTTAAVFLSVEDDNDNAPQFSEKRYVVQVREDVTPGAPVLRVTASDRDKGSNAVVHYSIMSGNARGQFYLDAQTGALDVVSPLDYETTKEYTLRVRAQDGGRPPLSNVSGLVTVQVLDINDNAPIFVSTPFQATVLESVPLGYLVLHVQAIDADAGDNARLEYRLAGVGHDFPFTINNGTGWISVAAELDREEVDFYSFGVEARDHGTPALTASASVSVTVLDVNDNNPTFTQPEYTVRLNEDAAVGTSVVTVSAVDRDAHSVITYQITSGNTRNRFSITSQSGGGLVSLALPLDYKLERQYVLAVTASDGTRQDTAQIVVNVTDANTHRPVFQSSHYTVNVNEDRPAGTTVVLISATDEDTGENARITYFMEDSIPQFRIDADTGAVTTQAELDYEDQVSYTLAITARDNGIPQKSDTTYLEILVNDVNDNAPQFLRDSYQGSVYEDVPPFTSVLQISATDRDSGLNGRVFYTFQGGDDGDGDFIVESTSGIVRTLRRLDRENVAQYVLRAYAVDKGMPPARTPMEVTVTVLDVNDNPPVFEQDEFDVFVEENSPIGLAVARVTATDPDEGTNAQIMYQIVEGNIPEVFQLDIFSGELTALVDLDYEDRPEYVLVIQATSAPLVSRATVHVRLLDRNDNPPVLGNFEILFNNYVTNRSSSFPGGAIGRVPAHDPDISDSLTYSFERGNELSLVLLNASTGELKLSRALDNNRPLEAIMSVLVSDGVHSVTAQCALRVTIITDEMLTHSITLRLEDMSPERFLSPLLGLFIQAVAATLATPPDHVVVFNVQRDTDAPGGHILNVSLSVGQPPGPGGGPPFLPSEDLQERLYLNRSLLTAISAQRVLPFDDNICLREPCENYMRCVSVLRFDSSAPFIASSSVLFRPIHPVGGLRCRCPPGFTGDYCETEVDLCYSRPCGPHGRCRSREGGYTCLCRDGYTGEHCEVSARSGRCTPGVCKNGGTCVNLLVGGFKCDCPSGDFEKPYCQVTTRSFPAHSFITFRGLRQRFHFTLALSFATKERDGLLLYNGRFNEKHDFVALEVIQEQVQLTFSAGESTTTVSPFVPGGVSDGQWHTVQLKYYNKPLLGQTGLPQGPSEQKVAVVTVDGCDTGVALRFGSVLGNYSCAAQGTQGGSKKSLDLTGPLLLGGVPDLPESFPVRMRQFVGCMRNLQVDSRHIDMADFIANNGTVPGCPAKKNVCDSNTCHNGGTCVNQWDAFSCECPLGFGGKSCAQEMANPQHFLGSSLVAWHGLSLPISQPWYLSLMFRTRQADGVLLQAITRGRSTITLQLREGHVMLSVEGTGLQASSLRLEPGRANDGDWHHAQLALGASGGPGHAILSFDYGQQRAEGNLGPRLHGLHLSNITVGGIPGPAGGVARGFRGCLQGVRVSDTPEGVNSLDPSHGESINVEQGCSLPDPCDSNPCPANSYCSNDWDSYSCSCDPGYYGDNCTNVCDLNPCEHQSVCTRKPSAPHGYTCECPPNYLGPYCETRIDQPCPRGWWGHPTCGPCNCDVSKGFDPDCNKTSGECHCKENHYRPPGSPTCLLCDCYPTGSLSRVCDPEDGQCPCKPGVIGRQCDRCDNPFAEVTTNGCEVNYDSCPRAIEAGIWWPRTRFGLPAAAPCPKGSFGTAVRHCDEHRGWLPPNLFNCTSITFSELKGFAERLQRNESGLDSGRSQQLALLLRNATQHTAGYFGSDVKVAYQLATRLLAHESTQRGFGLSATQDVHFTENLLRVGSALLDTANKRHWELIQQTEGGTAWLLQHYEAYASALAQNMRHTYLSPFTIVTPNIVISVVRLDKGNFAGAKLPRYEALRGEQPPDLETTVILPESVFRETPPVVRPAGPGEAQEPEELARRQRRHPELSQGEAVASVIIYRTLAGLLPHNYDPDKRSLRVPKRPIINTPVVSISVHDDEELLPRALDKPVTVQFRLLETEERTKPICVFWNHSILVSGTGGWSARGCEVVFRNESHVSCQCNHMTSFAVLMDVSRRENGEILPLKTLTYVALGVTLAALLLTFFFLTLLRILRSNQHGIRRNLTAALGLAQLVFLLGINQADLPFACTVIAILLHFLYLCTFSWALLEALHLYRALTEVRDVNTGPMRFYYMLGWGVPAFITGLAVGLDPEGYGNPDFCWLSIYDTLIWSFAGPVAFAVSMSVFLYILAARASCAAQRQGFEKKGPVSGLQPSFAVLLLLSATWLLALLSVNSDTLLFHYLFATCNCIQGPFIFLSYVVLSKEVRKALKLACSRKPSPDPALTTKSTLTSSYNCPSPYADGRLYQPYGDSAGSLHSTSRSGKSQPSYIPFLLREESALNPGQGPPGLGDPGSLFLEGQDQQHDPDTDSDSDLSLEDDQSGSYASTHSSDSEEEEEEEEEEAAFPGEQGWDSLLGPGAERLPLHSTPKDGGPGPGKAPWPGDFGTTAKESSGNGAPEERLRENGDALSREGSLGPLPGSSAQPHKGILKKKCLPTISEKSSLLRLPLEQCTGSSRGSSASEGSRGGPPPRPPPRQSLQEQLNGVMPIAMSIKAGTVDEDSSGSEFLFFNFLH

sotrastaurin = compound: CN1CCN(c2nc(C3=C(c4c[nH]c5ccccc45)C(=O)NC3=O)c3ccccc3n2)CC1 [sotrastaurin]
Outline: as §1

[1] = compound: CNC(=O)C1=CC=CC=C1NC2=NC(=NC=C2Cl)NC3=C(C=C(C=C3)N4CCOCC4)OC
Outline: as §1

defactinib = compound: CNC(=O)c1ccc(Nc2ncc(C(F)(F)F)c(NCc3nccnc3N(C)S(C)(=O)=O)n2)cc1 [defactinib]
Outline: as §1

barasertib = compound: CCN(CCCOc1ccc2c(Nc3cc(CC(=O)Nc4cccc(F)c4)[nH]n3)ncnc2c1)CCOP(=O)(O)O [barasertib]
Outline: as §1

[2] = compound: CC[C@@H]1C(=O)N(C)c2cnc(Nc3ccc(C(=O)NC4CCN(C)CC4)cc3OC)nc2N1C1CCCC1
Outline: as §1

[3] = compound: CCn1cc(-c2ccnc3[nH]c(-c4cccc(CN(C)C)c4)cc23)c(-c2ccc(NC(=O)N(C)C)cc2)n1
Outline: as §1

[4] = compound: CN1CCC(CNc2ccc3ncc(-c4cccc(OC(F)(F)F)c4)n3n2)CC1
Outline: as §1

saracatinib = compound: CN1CCN(CCOc2cc(OC3CCOCC3)c3c(Nc4c(Cl)ccc5c4OCO5)ncnc3c2)CC1 [saracatinib]
Outline: as §1

alvocidib = compound: CN1CC[C@H](c2c(O)cc(O)c3c(=O)cc(-c4ccccc4Cl)oc23)[C@H](O)C1 [alvocidib]
Outline: as §1

[5] = compound: CNc1nc(-c2ccc3c(N)n[nH]c3c2)cc(N2C[C@@H](C(=O)NC3CCCCC3)CC[C@H]2C)n1
Outline: as §1

encorafenib = compound: COC(=O)N[C@@H](C)CNc1nccc(-c2cn(C(C)C)nc2-c2cc(Cl)cc(NS(C)(=O)=O)c2F)n1 [encorafenib]
Outline: as §1

[6] = compound: COC(=O)[C@H](CCSC)NC(=O)C1=C(C=C(C=C1)NC[C@H](CS)N)C2=CC=CC=C2
Outline: as §1

alisertib = compound: COc1cc(Nc2ncc3c(n2)-c2ccc(Cl)cc2C(c2c(F)cccc2OC)=NC3)ccc1C(=O)O [alisertib]
Outline: as §1

gefitinib = compound: COc1cc2ncnc(Nc3ccc(F)c(Cl)c3)c2cc1OCCCN1CCOCC1 [gefitinib]
Outline: as §1

[7] = compound: CCCS(=O)(=O)Nc1ccc(F)c(C(=O)c2c[nH]c3ncc(Cl)cc23)c1F
Outline: as §1

volasertib = compound: CC[C@@H]1C(=O)N(C)c2cnc(Nc3ccc(C(=O)N[C@H]4CC[C@H](N5CCN(CC6CC6)CC5)CC4)cc3OC)nc2N1C(C)C [volasertib]
Outline: as §1

[8] = compound: CCn1c(C(=O)N(C2CC2)C2CC2)cc2c3c(ncn3C)c(Nc3cc(C)n(C)n3)nc21
Outline: as §1

Tubastatin A = compound: CN1CCc2c(c3ccccc3n2Cc2ccc(C(=O)NO)cc2)C1 [Tubastatin A]
Outline: as §1

[9] = compound: COc1cc2nc(-c3cc(F)ccc3O)nc(N[C@@H]3CNC[C@H]3C(C)(C)O)c2cc1OC
Outline: as §1

Target	log2 fold change (vemurafenib)	log2 fold change (sotrastaurin)	log2 fold change [1]	log2 fold change (defactinib)	log2 fold change (barasertib)	log2 fold change [2]	log2 fold change [3]	log2 fold change [4]	log2 fold change (saracatinib)	log2 fold change (alvocidib)	log2 fold change [5]	log2 fold change (encorafenib)	log2 fold change [6]	log2 fold change (alisertib)	log2 fold change (gefitinib)	log2 fold change [7]	log2 fold change (volasertib)	log2 fold change [8]	log2 fold change (Tubastatin A)	log2 fold change [9]
CEP85L isoform 4 (UniProt Q5SZL2)	inactive: -0.088	inactive: -0.063	inactive: -0.138	inactive: -0.112																
CDCA8 (UniProt Q53HL2)	inactive: 0.025		inactive: 0.054	inactive: 0.144	inactive: 0.106	inactive: 0.051	active: 0.677	inactive: -0.034	inactive: 0.171	inactive: 0.091	inactive: -0.061	inactive: 0.003	inactive: -0.044	inactive: 0.034	inactive: 0.04					
CD99 (UniProt P14209)	inactive: 0.013	inactive: -0.089	inactive: 0.066	inactive: 0.21			inactive: -0.01	inactive: -0.063	inactive: 0.173	inactive: 0.038	inactive: -0.265			inactive: 0.018	inactive: -0.083	inactive: 0.103	inactive: -0.035	inactive: -0.039	inactive: 0.031	inactive: 0.068
CDC37 (UniProt K7EL68)	inactive: 0.012	inactive: -0.089		inactive: 0.01	inactive: -0.01		inactive: 0.179	inactive: 0.083		inactive: -0.054										
CFAP47 (UniProt Q6ZTR5)	inactive: -0.088	inactive: 0.04	inactive: 0.092	inactive: -0.045		inactive: 0.142	inactive: -0.286	inactive: 0.05	inactive: 0.069	inactive: -0.098	inactive: 0.612	inactive: 0.005	inactive: 0.133	inactive: -0.271	inactive: -0.121	inactive: 0.218	inactive: 0.173	inactive: -0.273	inactive: 0.104	inactive: 0.117
CD99L2 isoform 5 (UniProt Q8TCZ2)	inactive: 0.097	inactive: -0.008	inactive: -0.08	inactive: -0.096			inactive: 0.057	inactive: -0.039	inactive: 0.034	inactive: -0.115	inactive: 0.084			inactive: 0.161	inactive: 0.003	inactive: 0.189	inactive: 0.109			inactive: -0.051
CFLAR (UniProt O15519)	inactive: -0.089	inactive: -0.01		inactive: -0.003		inactive: 0.022	inactive: 0.037	inactive: 0.07	inactive: 0.082	inactive: -0.094	inactive: 0.029	inactive: 0.079	inactive: -0.12					inactive: 0.02	inactive: -0.012	
CEBPZOS (UniProt A8MTT3)	inactive: 0.031	inactive: -0.005	inactive: 0.015	inactive: 0.075		inactive: -0.048	inactive: -0.176	inactive: 0.041	inactive: 0.03	inactive: -0.063	inactive: -0.055	inactive: 0.064	inactive: 0.046	inactive: -0.064	inactive: 0.006	inactive: -0.026	inactive: -0.007	inactive: 0.024	inactive: -0.124	inactive: -0.099
CDC42EP2 (UniProt O14613)	inactive: -0.059	inactive: 0.014		inactive: 0.143														inactive: -0.12	inactive: 0.028	
CEP170B (UniProt Q9Y4F5)	inactive: 0.029	inactive: 0.026		inactive: -0.005		inactive: 0.036	inactive: 0.028	inactive: -0.105	inactive: 0.024	inactive: -0.024	inactive: 0.132	inactive: 0.027	inactive: -0.068			inactive: -0.07	inactive: -0.052			inactive: -0.099
CERS5 (UniProt Q8N5B7)		inactive: 0.095	inactive: -0.032		inactive: -0.005	inactive: 0.018	inactive: -0.05	inactive: 0.128	inactive: -0.041	inactive: 0.026	inactive: 0.039	inactive: -0.034	inactive: -0.061			inactive: 0.091	inactive: -0.012	inactive: -0.002	inactive: 0.021	inactive: -0.009
CDC42, A0A494C1M1							inactive: 0.178	inactive: 0.017		inactive: -0.052				inactive: -0.108	inactive: 0.043	inactive: 0.054	inactive: -0.034			inactive: 0
CDC6 (UniProt Q99741)		inactive: -0.128	inactive: -0.007						inactive: -0.133		inactive: -0.36			inactive: -0.063	inactive: 0.227			inactive: 0.016	inactive: -0.006	
CDC42BPG (UniProt Q6DT37)		inactive: 0.323							inactive: 0.011		inactive: 0.019			inactive: 0	inactive: -0.112	inactive: 0.044	inactive: 0.145	inactive: 0.057	inactive: -0.032	inactive: 0.093
CELSR2 (UniProt Q9HCU4)			inactive: -0.029																	
CEP63 (UniProt Q96MT8)			inactive: -0.129			inactive: -0.051	inactive: -0.416	inactive: 0.091	inactive: 0.025	inactive: -0.091	inactive: -0.093	inactive: 0.069	inactive: 0.048	inactive: 0.089	inactive: -0.052	inactive: 0.003	inactive: 0.031			inactive: -0.021

2 entries picked at random from those above:
Target	log2 fold change (vemurafenib)	log2 fold change (sotrastaurin)	log2 fold change [1]	log2 fold change (defactinib)	log2 fold change (barasertib)	log2 fold change [2]	log2 fold change [3]	log2 fold change [4]	log2 fold change (saracatinib)	log2 fold change (alvocidib)	log2 fold change [5]	log2 fold change (encorafenib)	log2 fold change [6]	log2 fold change (alisertib)	log2 fold change (gefitinib)	log2 fold change [7]	log2 fold change (volasertib)	log2 fold change [8]	log2 fold change (Tubastatin A)	log2 fold change [9]
CERS5 (UniProt Q8N5B7)		inactive: 0.095	inactive: -0.032		inactive: -0.005	inactive: 0.018	inactive: -0.05	inactive: 0.128	inactive: -0.041	inactive: 0.026	inactive: 0.039	inactive: -0.034	inactive: -0.061			inactive: 0.091	inactive: -0.012	inactive: -0.002	inactive: 0.021	inactive: -0.009
CDC6 (UniProt Q99741)		inactive: -0.128	inactive: -0.007						inactive: -0.133		inactive: -0.36			inactive: -0.063	inactive: 0.227			inactive: 0.016	inactive: -0.006	

Reference: the supplement of paper PMC10849652
